According to PubChem BioAssay AID220 (DTP/NCI, 2004):
The list is a part of this screen's results and no random one: it is rich in T/C values a quarter to a half above the control, in often repeated tests (any T/C) and in doses without a T/C. Other doses and runs of a compound stand elsewhere. T/C is the treated group as % of the vehicle group. Schedules are NCI's codes, taken here to give the interval after Q, in days (D) or hours (H), and the number of doses after X. Some doses have a count of surviving animals in place of a T/C: the source files T/C as zero there, which appears to mark a toxic dose or a test without result, not a measured value. Counts of survivors are from the toxicity check (mostly the fifth day) where no day follows; animals may have died later. Some entries were tested several times; the values are given in rising order. Positions of bridges follow the written chain, without caps; N, C: chain ends. Non-standard residues stand in square brackets, D forms with d. Residues, ends and D or L forms follow the SMILES beside them. Chains are numbered I, II in the order given. *: point of attachment. Quinoxaline2carbonyl = O=C(c1cnc2ccccc2n1)*; NMeV = CN[CH](C(=O)O)C(C)C; NMeC = CN[CH](CS)C(=O)O

Tested on: CD8F1 mice, subcutaneous mammary adenocarcinoma, T/C%
Experiment: NCI In Vivo Anticancer Drug Screen. Data for tumor model Mammary Adenocarcinoma CD8F1 (subcutaneous) in CD8F1
Conditions: higher T/C = larger tumour
Summary of the method: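 Compound-treated versus vehicle-treated mice with transplantable tumors; survival or tumor size compared as T/C.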

[1] = T/C endpoint: median tumor weight change, dose: 1000.0 mg/kg/injection, schedule: Q01DX001 (ip), vehicle: saline with Tween-80
[2] = T/C endpoint: median tumor weight change, dose: 2000.0 mg/kg/injection, schedule: Q01DX001 (ip), vehicle: saline
[3] = T/C endpoint: median tumor weight change, dose: 500.0 mg/kg/injection, schedule: Q01DX001 (ip), vehicle: suspension in saline
[4] = T/C endpoint: median tumor weight change, dose: 500.0 mg/kg/injection, schedule: Q01DX001 (ip), vehicle: saline

SMILES: CCC1(O)CC2CN(CCc3c([nH]c4ccccc34)C(C(=O)OC)(c3cc4c(cc3OC)N(C)C3C(O)(C(=O)NCCSSCCNC(=O)C5(O)C(O)C6(CC)C=CCN7CCC8(c9cc(C%10(C(=O)OC)CC%11CN(CCc%12c%10[nH]c%10ccccc%12%10)CC(O)(CC)C%11)c(OC)cc9N(C)C58)C76)C(O)C5(CC)C=CCN6CCC43C65)C2)C1 (stereo unspecified)
- survivor count (T/C endpoint: median tumor weight change, dose: 3.24 mg/kg/injection, schedule: Q01DX001 (ip), vehicle: saline): 5 of 10 on day 37
- survivor count (T/C endpoint: median tumor weight change, dose: 5.4 mg/kg/injection, schedule: Q01DX001 (ip), vehicle: saline): 0 of 10 on day 37
- survivor count (T/C endpoint: median tumor weight change, dose: 9.0 mg/kg/injection, schedule: Q01DX001 (ip), vehicle: saline): 0 of 10 on day 37
- survivor count (T/C endpoint: median tumor weight change, dose: 15.0 mg/kg/injection, schedule: Q01DX001 (ip), vehicle: saline): 0 of 10 on day 37

SMILES: C1CN1c1nc(N2CC2)nc(N2CC2)n1
- survivor count (T/C endpoint: median tumor weight (est.), dose: 4.0 mg/kg/injection, schedule: Q07DX005 (ip), vehicle: saline): 0 of 10 on day 30
- T/C (T/C endpoint: median tumor weight change, dose: 0.62 mg/kg/injection, schedule: Q01DX001 (ip), vehicle: suspension in saline, evaluated on day 28): 129 % of control
- survivor count (T/C endpoint: median tumor weight change, dose: 5.0 mg/kg/injection, schedule: Q01DX001 (ip), vehicle: suspension in saline): 0 of 10 on day 28 and 0 of 10 on day 32
- survivor count (T/C endpoint: median tumor weight change, dose: 10.0 mg/kg/injection, schedule: Q01DX001 (ip), vehicle: suspension in saline): 0 of 10 on day 32
- survivor count (T/C endpoint: median tumor weight change, dose: 20.0 mg/kg/injection, schedule: Q01DX001 (ip), vehicle: suspension in saline): 0 of 10 on day 32

SMILES: CCN(CC)CCNc1ccc(C)c2sc3ccc(O)cc3c(=O)c12
- T/C (T/C endpoint: median tumor weight change, dose: 125.0 mg/kg/injection, schedule: Q01DX001 (ip), vehicle: saline with Tween-80, evaluated on day 36): 129 % of control
- survivor count [1]: 6 of 10 on day 36

SMILES: O=[N+]([O-])c1ccc(Sc2ccncn2)c([N+](=O)[O-])c1
- survivor count (T/C endpoint: median tumor weight change, dose: 250.0 mg/kg/injection, schedule: Q01DX001 (ip), vehicle: saline with Tween-80): 4 of 10 on day 34
- survivor count (T/C endpoint: median tumor weight change, dose: 500.0 mg/kg/injection, schedule: Q01DX001 (ip), vehicle: saline with Tween-80): 1 of 10 on day 34
- survivor count [1]: 1 of 10 on day 34

SMILES: O=C1c2c(O)ccc(O)c2C(=O)c2c(NCCNCCO)ccc(NCCNCCO)c21
- T/C (T/C endpoint: median tumor weight (est.), dose: 2.0 mg/kg/injection, schedule: Q07DX005 (ip), vehicle: water, evaluated on day 30): 127 % of control
- survivor count (T/C endpoint: median tumor weight (est.), dose: 4.0 mg/kg/injection, schedule: Q07DX005 (ip), vehicle: water): 0 of 10 on day 30

SMILES: OC1(CSc2ccccc2)CCCCC1
- survivor count [1]: 0 of 6 on day 27 and 6 of 10 on day 35
- survivor count (T/C endpoint: median tumor weight change, dose: 1500.0 mg/kg/injection, schedule: Q01DX001 (ip), vehicle: saline with Tween-80): 0 of 6 on day 27
- survivor count (T/C endpoint: median tumor weight change, dose: 2000.0 mg/kg/injection, schedule: Q01DX001 (ip), vehicle: saline with Tween-80): 2 of 10 on day 28 and 5 of 10 on day 35

SMILES: CCOC(=O)C(N)CSC(=O)NC (stereo unspecified)
- survivor count (T/C endpoint: median tumor weight change, dose: 1600.0 mg/kg/injection, schedule: Q01DX001 (ip), vehicle: saline): 0 of 10 on day 35
- survivor count [2]: 0 of 10 on day 32 and 0 of 10 on day 38

SMILES: CC1NC(=O)C(NC(=O)c2cnc3ccccc3n2)COC(=O)C(C(C)C)N(C)C(=O)C2CSSCC(C(=O)N(C)C(C(C)C)C(=O)OCC(NC(=O)c3cnc4ccccc4n3)C(=O)NC(C)C(=O)N2C)N(C)C1=O (stereo unspecified) (I: Quinoxaline2carbonyl-SA[NMeC][NMeV] / II: Quinoxaline2carbonyl-SA[NMeC][NMeV]; ester I:1-II:C, I:C-II:1; disulfide I:3-II:3; configuration not given here)
- survivor count (T/C endpoint: median tumor weight change, dose: 800.0 micrograms/kg/injection, schedule: Q01DX001 (ip), vehicle: Klucel (hydroxypropylcellulose) (HPC)): 0 of 10 on day 28

SMILES: CN(CO)c1nc(N(C)CO)nc(N(C)CO)n1
- T/C (T/C endpoint: median tumor weight (est.), dose: 6.25 mg/kg/injection, schedule: Q07DX006 (ip), vehicle: saline, evaluated on day 37): 145 % of control
- T/C (T/C endpoint: median tumor weight (est.), dose: 25.0 mg/kg/injection, schedule: Q07DX005 (ip), vehicle: saline with Tween-80, evaluated on day 30): 127 % of control

SMILES: C[C@@H]1C[C@@H]([C@H](O)CC2CC(=O)NC(=O)C2)C(=O)[C@@H](C)C1
- survivor count [3]: 3 of 10 on day 28
- survivor count (T/C endpoint: median tumor weight change, dose: 1000.0 mg/kg/injection, schedule: Q01DX001 (ip), vehicle: suspension in saline): 0 of 10 on day 28

SMILES: CC[C@@H](C)[C@@H]1NC(=O)C(NC(=O)C(CC(C)C)N(C)C(=O)C2CCCN2C(=O)C(C)O)C(C)OC(=O)C(Cc2ccc(OC)cc2)N(C)C(=O)C2CCCN2C(=O)C(CC(C)C)NC(=O)C(C)C(=O)C(C(C)C)OC(=O)C[C@H]1O (stereo partly specified)
- T/C (T/C endpoint: median tumor weight change, dose: 80.0 micrograms/kg/injection, schedule: Q01DX001 (ip), vehicle: distilled water + alcohol, evaluated on day 31): 131 % of control
- T/C (T/C endpoint: median tumor weight change, dose: 150.0 micrograms/kg/injection, schedule: Q01DX001 (ip), vehicle: distilled water + alcohol, evaluated on day 33): 132 % of control
- T/C (T/C endpoint: median tumor weight change, dose: 160.0 micrograms/kg/injection, schedule: Q01DX001 (ip), vehicle: distilled water + alcohol, evaluated on day 31): 139 % of control

SMILES: CCCCCC#CC1OC12CCCCC2 (stereo unspecified)
- survivor count (T/C endpoint: median tumor weight change, dose: 1600.0 mg/kg/injection, schedule: Q01DX001 (ip), vehicle: saline with Tween-80): 0 of 10 on day 38

SMILES: CC1=NN(c2cccc(S(=O)(=O)O)c2)C(=O)C1N=Nc1cc(Cl)cc(S(=O)(=O)O)c1O.CC1=NN(c2cccc(S(=O)(=O)O)c2)C(=O)C1N=Nc1cc(Cl)cc(S(=O)(=O)O)c1O.[Cr] (stereo unspecified)
- survivor count [4]: 3 of 10 on day 36
- survivor count (T/C endpoint: median tumor weight change, dose: 1000.0 mg/kg/injection, schedule: Q01DX001 (ip), vehicle: saline): 0 of 10 on day 36
- survivor count [2]: 0 of 10 on day 36

SMILES: O=C(N/N=C\c1cc(Br)cc(Br)c1O)N/N=C/c1cc(Br)cc(Br)c1O
- T/C (T/C endpoint: median tumor weight (est.), dose: 50.0 mg/kg/injection, schedule: Q07DX005 (ip), vehicle: saline with Tween-80, evaluated on day 30): 136 % of control
- T/C (T/C endpoint: median tumor weight (est.), dose: 200.0 mg/kg/injection, schedule: Q07DX005 (ip), vehicle: saline with Tween-80, evaluated on day 30): 128 % of control

SMILES: COc1cc([C@@H]2c3cc4c(cc3[C@@H](OC3OC5CO[C@@H](c6cccs6)OC5C(O)C3O)[C@H]3COC(=O)[C@H]23)OCO4)cc(OC)c1O (stereo partly specified)
- T/C (T/C endpoint: median tumor weight (est.), dose: 4.0 mg/kg/injection, schedule: Q07DX005 (ip), vehicle: saline, evaluated on day 30): 133 % of control
- survivor count (T/C endpoint: median tumor weight (est.), dose: 16.0 mg/kg/injection, schedule: Q07DX005 (ip), vehicle: saline): 1 of 10

SMILES: COc1cc(Cc2nccc3cc(OC)c(OC)cc23)c(C(C)=O)cc1OC
- survivor count (T/C endpoint: median tumor weight change, dose: 250.0 mg/kg/injection, schedule: Q01DX001 (ip), vehicle: saline): 4 of 10 on day 28
- survivor count (T/C endpoint: median tumor weight change, dose: 250.0 mg/kg/injection, schedule: Q01DX001 (ip), vehicle: suspension in saline): 2 of 10 on day 31
- survivor count [4]: 0 of 10 on day 28 and 0 of 10 on day 41
- survivor count [3]: 0 of 10 on day 31
